Data as given in PubChem BioAssay AID504791 (Drosophila RNAi Screening Center, 2011).
In all, the deposit lists about 23,000 reagents; this is an unselected part of those that have a named target and a result. Of all reagents, 199 (0.86%) are marked active. 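Plate-scaled ratios behind the calls are not deposited; printed light signals are raw; many rows marked increased or decreased are still called inactive.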 A plus sign joins genes that one reagent is predicted to hit. Reagent sequences are not shown. The record does not give: the direction of the score.

Purpose: 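Genes whose knock-down strengthens or weakens small-RNA reporter silencing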 (primary screen)
Cell system: Drosophila S2-derived reporter cells
Knock-down reagent: long dsRNA against Drosophila genes, about 150-250 ng dsRNA per well (siRNA assay); about 80-120 ng (miRNA assay)
Time to read-out: about 5 days (siRNA assay); about 4 days (miRNA assay)
Conditions: copper sulfate induction of reporters: 25 µM (siRNA assay); 200 mM stated (miRNA assay), 1-2 days before reading
Measurement: 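Per-well ratio of Renilla over firefly light, expressed relative to that plate's average ratio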
Units: stable assay Renilla, run 1 in luminescence; stable assay firefly, run 1 in luminescence
Call rule: 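a well was a first-pass pick when its plate-scaled ratio rose above 1.5 (siRNA assay) or 1.6 (miRNA assay), or dropped below 0.6; a gene counted only if two separate dsRNAs agreed on retest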

gene	amplicon	stable siRNA reporter change	stable assay Renilla, run 1	stable assay firefly, run 1	call
Alg10 (ALG10 alpha-1,2-glucosyltransferase)	DRSC10892		5515	3.05e5	inactive
MTA1-like (Metastasis associated 1-like)	DRSC12382		6035	4.52e5	inactive
MTA1-like (Metastasis associated 1-like)	DRSC22022		8379	5.14e5	inactive
miple1 (midkine and pleiotrophin 1)	DRSC08722		6051	3.52e5	inactive
nAChRbeta1 (nicotinic Acetylcholine Receptor beta1)	DRSC08097		4043	3.27e5	inactive
nAChRbeta1 (nicotinic Acetylcholine Receptor beta1)	DRSC08728		7218	4.20e5	inactive
Srp54k (Signal recognition particle 54k)	DRSC11289		6854	3.76e5	inactive
glob2 (globin 2)	DRSC12560		7759	5.27e5	inactive
Rab3	DRSC07523		7678	3.81e5	inactive
Vha100-2 (Vacuolar H[+] ATPase 100kD subunit 2)	DRSC14152		9523	3.98e5	inactive
CG43339 + CG43338	DRSC02466		7226	1.38e6	inactive
Kr-h2 (Kruppel homolog 2)	DRSC03356		7331	4.42e5	inactive
Jhedup (Juvenile hormone esterase duplication)	DRSC07173		7102	3.82e5	inactive
CG15543	DRSC15081		6240	3.96e5	inactive
CG33462	DRSC22902		3627	3.21e5	inactive
CG13455	DRSC10002		6820	3.41e5	inactive
sinah (sina homologue)	DRSC09910		8679	4.95e5	inactive
sinah (sina homologue)	DRSC22181		8765	6.51e5	inactive
CG8067	DRSC07065		8674	4.63e5	inactive
Mrtf (Myocardin-related transcription factor)	DRSC08263	reporter ratio raised past the hit cutoff	5187	1.96e5	inactive
Mrtf (Myocardin-related transcription factor)	DRSC08410		4899	2.65e5	inactive
Mrtf (Myocardin-related transcription factor)	DRSC08411		5567	4.52e5	inactive
Mrtf (Myocardin-related transcription factor)	DRSC23194		4111	3.92e5	inactive
east (enhanced adult sensory threshold)	DRSC18770		6407	5.73e5	inactive
CG13970	DRSC02311		6559	3.26e5	inactive
CG10514	DRSC14249		7159	3.70e5	inactive
CtBP (C-terminal Binding Protein)	DRSC16617		7652	3.71e5	inactive
CG10581	DRSC11623		7851	4.26e5	inactive
AP-1gamma (Adaptor Protein complex 1, gamma subunit)	DRSC18433		4855	3.86e5	inactive
Or49a (Odorant receptor 49a)	DRSC07493		5983	2.86e5	inactive
aqz (aaquetzalli)	DRSC16570		5023	4.69e5	inactive
B-H1 (BarH1)	DRSC19334		3952	3.04e5	inactive
B-H1 (BarH1)	DRSC21922		9526	6.20e5	inactive
CG1387	DRSC17904		8447	4.23e5	inactive
Klp54D (Kinesin-like protein at 54D)	DRSC07450		6135	2.62e5	inactive
CG12268	DRSC14491		6874	3.81e5	inactive
CG13081	DRSC02185		6958	5.08e5	inactive
Mfap1 (Microfibril-associated protein 1)	DRSC08154		9601	2.97e5	inactive
NC2beta (Negative Cofactor 2beta)	DRSC01895		5931	1.87e6	inactive
Nadk1b (NAD kinase 1b)	DRSC05432		4119	2.94e5	inactive
Nadk1b (NAD kinase 1b)	DRSC06964		7658	4.44e5	inactive
Nadk1b (NAD kinase 1b)	DRSC06965		5535	3.16e5	inactive
CG32971	DRSC01372		5124	2.90e5	inactive
swi2	DRSC06457		6994	3.55e5	inactive
eIF4H2 (eukaryotic translation initiation factor 4H2)	DRSC14582		6863	4.28e5	inactive
CG14722	DRSC14944		8167	3.43e5	inactive
cad (caudal)	DRSC03502		6335	8.73e5	inactive
cad (caudal)	DRSC23193		4167	3.56e5	inactive
siz (schizo)	DRSC11622		6643	3.60e5	inactive
siz (schizo)	DRSC11689		8351	3.41e5	inactive
siz (schizo)	DRSC11690		9604	4.89e5	inactive
Gyc89Db (Guanylyl cyclase at 89Db)	DRSC15009	reporter ratio raised past the hit cutoff	26614	5.48e5	inactive
CG7213	DRSC10787		6478	4.57e5	inactive
vig (vasa intronic gene)	DRSC03630		5128	4.26e5	inactive
vig (vasa intronic gene)	DRSC03631		17655	1.60e6	inactive
vig (vasa intronic gene)	DRSC21672		9018	4.75e5	inactive
nAChRalpha6 (nicotinic Acetylcholine Receptor alpha6)	DRSC01096		5488	3.98e5	inactive
nAChRalpha6 (nicotinic Acetylcholine Receptor alpha6)	DRSC02738		6879	2.89e5	inactive

An excerpt from above, showing only “stable assay Renilla, run 1”.
Mrtf (Myocardin-related transcription factor) [DRSC23194]	4111
east (enhanced adult sensory threshold) [DRSC18770]	6407
CG13970 [DRSC02311]	6559
CG10514 [DRSC14249]	7159
CtBP (C-terminal Binding Protein) [DRSC16617]	7652
